Experimental data taken from paper PMC10241914.
These are yes or no findings as the source states them, for the method shown. In cells and extracts the contact can be indirect. These calls come from enrichment with a bait or labelling near it, and not all partners need be listed.

The chains behind the UniProt entries cited, without tags or fusion partners. Residues count along the entry.
UniProt P08238: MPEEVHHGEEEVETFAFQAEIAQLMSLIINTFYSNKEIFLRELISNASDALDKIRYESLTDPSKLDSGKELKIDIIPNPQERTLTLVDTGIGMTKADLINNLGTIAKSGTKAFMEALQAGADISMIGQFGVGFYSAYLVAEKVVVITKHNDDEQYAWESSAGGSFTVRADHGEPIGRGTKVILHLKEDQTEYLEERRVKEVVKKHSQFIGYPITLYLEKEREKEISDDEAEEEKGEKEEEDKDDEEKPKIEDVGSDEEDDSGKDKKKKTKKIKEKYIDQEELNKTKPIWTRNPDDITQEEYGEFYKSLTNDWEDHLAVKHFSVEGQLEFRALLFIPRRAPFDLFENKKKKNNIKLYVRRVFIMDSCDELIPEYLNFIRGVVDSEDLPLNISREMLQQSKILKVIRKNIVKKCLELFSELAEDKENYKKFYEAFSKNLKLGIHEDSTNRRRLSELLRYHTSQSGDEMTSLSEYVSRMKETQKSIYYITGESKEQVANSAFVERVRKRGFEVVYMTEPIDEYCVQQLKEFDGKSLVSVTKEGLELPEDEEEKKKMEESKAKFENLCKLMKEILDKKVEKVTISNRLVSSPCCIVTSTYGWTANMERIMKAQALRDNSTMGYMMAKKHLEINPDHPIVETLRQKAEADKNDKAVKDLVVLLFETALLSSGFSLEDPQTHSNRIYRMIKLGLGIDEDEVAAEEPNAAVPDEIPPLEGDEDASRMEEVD
UniProt P11021, residues 19-654: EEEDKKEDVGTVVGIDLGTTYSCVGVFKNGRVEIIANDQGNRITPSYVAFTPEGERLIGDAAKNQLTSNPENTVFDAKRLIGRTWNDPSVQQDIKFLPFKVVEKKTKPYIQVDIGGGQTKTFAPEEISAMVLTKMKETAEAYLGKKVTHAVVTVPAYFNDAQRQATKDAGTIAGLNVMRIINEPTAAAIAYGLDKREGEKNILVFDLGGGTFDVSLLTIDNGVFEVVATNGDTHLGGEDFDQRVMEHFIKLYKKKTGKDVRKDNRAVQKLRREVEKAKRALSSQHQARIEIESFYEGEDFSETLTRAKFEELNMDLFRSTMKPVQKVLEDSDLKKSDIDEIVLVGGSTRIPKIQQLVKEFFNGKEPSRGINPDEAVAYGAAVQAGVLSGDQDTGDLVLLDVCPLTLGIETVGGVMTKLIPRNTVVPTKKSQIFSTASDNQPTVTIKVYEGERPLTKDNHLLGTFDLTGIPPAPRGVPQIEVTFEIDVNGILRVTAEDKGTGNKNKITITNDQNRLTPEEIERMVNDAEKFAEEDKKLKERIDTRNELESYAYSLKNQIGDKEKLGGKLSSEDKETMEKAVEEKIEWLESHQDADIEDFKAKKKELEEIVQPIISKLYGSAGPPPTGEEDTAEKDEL
UniProt P38646, residues 47-679: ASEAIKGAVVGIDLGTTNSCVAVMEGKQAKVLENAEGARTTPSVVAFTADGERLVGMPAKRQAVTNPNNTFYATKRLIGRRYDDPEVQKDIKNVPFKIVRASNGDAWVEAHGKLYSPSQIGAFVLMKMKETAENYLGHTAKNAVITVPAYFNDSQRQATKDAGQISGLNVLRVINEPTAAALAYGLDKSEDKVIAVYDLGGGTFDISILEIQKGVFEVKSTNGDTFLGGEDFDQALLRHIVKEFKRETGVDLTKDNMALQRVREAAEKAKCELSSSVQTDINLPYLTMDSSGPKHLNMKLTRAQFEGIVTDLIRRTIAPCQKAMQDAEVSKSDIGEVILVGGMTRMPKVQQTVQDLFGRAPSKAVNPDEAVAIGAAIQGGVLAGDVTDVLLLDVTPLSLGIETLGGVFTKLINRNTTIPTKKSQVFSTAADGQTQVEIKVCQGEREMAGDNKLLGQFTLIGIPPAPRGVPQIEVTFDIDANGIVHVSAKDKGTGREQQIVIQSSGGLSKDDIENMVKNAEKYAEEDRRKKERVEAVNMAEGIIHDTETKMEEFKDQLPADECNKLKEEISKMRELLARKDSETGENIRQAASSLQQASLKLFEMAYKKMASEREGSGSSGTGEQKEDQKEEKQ
UniProt P11142: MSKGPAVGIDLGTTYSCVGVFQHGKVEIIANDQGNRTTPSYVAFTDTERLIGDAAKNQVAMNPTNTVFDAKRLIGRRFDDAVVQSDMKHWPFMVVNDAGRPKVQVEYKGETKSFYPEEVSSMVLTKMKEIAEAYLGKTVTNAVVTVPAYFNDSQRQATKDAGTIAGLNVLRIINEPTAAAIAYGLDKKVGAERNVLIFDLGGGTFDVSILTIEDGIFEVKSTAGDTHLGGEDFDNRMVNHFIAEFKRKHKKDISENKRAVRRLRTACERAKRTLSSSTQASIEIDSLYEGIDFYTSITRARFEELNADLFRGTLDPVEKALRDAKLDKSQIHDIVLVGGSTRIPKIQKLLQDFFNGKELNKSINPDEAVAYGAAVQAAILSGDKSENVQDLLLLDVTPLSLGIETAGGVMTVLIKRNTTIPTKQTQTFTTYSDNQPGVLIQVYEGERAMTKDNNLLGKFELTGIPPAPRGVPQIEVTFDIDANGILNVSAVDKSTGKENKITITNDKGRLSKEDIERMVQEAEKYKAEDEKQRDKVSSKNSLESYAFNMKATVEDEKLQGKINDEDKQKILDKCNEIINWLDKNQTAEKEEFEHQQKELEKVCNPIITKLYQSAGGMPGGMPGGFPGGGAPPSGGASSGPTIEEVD

Target: T1, C11orf54 (bait of the Co-IP/MS assay) (human) (UniProt Q9H0W9)
T1 sequence: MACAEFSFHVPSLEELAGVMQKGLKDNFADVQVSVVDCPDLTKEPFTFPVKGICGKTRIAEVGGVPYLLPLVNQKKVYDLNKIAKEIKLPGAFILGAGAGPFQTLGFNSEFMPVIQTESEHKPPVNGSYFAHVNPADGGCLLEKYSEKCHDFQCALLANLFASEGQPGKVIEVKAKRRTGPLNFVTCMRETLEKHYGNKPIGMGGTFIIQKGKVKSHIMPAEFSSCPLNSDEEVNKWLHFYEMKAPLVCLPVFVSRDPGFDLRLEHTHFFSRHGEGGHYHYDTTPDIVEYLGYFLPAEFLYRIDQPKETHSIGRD
Assay: affinity purification with mass spectrometry; co-immunoprecipitation/mass spectrometry (Co-IP/MS) of C11orf54; cells and antibody not told in the text shown

Row | binding | Substance
1 | binds | HSP90AB1 (from UniProt P08238 1-724)
2 | binds | HSPA5 (from UniProt P11021 19-654)

Second part, the substance before the results:

Row | Substance | binding
3 | HSPA9 (from UniProt P38646 47-679) | binds
4 | HSPA8 (from UniProt P11142 1-646) | binds
5 | HSP90AA1 (from UniProt P07900 1-732) | binds
